Literature values as cited in patent US20050048543A1 (priority 2003, published 2005).
At least one compound was matched to its structure with a doubt left.

Key:
[1] = system: patients with mild to moderate AD; settings: two multicenter trials of 5 to 6 months duration, cognitive function criteria

## COc1ccc2c3c1O[C@H]1C[C@@H](O)C=C[C@@]31CCN(C)C2 [galantamine]
[1]
  patients who failed to show a clinically meaningful improvement: more than 50%
AD patients
  difference in efficacy of response between patients with zero, one or two copies of the ApoE4 allele: no significant difference
